Laboratory results published in patent US20200095280A1, “Methods of using GM6 in diagnosing and treating Alzheimers disease” (Genervon Biopharmaceuticals LLC, priority 2016, published 2020).
Not every detail of the peptide structures is certain; ends, links or a residue may be inferred. Where no end group is shown, it is not given here.

Protein sequences, listed by entry. Tags and fused reporters are not part of them. Residues count along the entry.
UniProt P06213, 28-758 limits assumed, species assumed: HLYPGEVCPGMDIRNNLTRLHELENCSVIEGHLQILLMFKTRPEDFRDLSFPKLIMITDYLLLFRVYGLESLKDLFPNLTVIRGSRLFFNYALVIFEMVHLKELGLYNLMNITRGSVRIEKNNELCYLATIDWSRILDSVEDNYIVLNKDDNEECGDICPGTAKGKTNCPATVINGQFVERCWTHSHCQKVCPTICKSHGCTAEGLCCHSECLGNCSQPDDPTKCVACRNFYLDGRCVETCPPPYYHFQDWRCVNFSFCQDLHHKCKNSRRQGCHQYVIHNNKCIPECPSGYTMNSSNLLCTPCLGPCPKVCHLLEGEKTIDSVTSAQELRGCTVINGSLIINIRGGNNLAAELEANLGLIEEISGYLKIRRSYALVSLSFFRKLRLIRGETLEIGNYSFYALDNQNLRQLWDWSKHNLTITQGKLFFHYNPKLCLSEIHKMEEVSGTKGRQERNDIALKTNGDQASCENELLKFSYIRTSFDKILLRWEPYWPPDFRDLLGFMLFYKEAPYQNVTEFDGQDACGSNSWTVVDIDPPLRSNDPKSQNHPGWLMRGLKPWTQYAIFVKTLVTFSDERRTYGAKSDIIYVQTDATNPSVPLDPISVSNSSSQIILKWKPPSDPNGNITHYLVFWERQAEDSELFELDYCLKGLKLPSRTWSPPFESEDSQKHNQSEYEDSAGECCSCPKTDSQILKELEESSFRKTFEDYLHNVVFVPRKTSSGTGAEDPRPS
UniProt P06213, 763-1382 limits assumed, species assumed: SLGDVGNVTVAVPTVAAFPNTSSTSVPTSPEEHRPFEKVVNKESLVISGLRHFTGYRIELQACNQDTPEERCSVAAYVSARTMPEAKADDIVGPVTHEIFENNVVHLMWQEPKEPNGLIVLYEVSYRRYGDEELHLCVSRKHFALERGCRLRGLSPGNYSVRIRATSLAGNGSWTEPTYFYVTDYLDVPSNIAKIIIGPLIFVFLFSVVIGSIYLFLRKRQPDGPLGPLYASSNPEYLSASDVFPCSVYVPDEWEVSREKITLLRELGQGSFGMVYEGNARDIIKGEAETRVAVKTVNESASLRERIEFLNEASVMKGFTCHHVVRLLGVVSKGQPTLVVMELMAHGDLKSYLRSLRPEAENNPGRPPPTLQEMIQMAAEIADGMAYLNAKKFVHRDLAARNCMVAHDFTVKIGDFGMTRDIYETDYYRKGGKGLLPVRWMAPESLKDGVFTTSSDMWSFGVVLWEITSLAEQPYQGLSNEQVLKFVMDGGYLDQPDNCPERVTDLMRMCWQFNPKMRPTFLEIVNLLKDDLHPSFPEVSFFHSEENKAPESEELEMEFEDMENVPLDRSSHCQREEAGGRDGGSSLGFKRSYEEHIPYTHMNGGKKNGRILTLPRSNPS

Tests used:
SH-SY5Y cells [1] = assay: DNA microarray gene expression in GM6- vs control-treated SH-SY5Y cells; format: cell-based
insulin receptor = insulin receptor (Homo sapiens, UniProt P06213); conditions: cited from earlier work
tau protein = assay: Phase 2A study: tau protein in CSF and plasma of ALS patients given GM6 or placebo; format: in vivo, human; conditions: 6 doses over 2 weeks
SH-SY5Y cells [2] = assay: RNA-seq expression profiling of GM6-treated SH-SY5Y cells (UM and SBH datasets); format: cell-based; conditions: for number of GM6-decreased AD-associated genes / number of GM6-increased AD-associated genes: FDR<0.10
[3] = tested on: Sprague Dawley rat cortical neuronal cells; assay: Survival (MTT) of rat cortical neurons exposed to post-mortem patient CSF; format: cell-based; conditions: 48 hrs, n=5 per group

In the case of FSRYAR [GM6, FSRYAR], the “average increase of 24 AD-associated genes linked to AD by 5+ sources” value (SH-SY5Y cells [1]; 48 hr, P=0.001 vs random gene sets) is reported as 30%, the “expression of upstream pathway genes CACNA1F and FADD” value (SH-SY5Y cells [1]; 48 hrs) is reported as “GM6-repressed” and the “mitochondrial components of KEGG AD pathway down-regulated by GM6” value (SH-SY5Y cells [1]; 48 hrs) is reported as 5 of 6. The “MAPT mRNA fold-change (GM6/CTL)” value (SH-SY5Y cells [1]; 48 hrs GM6 1 mg/ml, FDR=0.023, P=0.00721) was 0.71, the “number of GM6-decreased genes among 134 KEGG AD-associated genes” value (SH-SY5Y cells [1]; 48 hrs, FDR<0.10) was 62 and the “number of GM6-increased genes among 134 KEGG AD-associated genes” value (SH-SY5Y cells [1]; 48 hrs, FDR<0.10) was 22. The “expression of genes linked to AD by genetic analyses (GWAS catalog 202 genes, OMIM 14 genes)” value (SH-SY5Y cells [1]; P=0.026 (GWAS), P=0.002 (OMIM), 2000 simulation trials) was “disproportionately induced”, the “binding to insulin receptor, autophosphorylation of Tyr 1162/1163” value (insulin receptor) was “binds to the insulin receptor” and the “change in CSF tau” value (tau protein; baseline (visit 1) vs final GM6 treatment (visit 6), vs placebo, P=0.095) was “marginal evidence of decreased tau”. For the same substance, the “change in plasma tau” value (tau protein; post-treatment interval between visits 6 and 7, vs placebo, P=0.005) was “all GM6-treated patients showed decreased tau”, the MAPT expression increase (SH-SY5Y cells [2]; 3 comparisons of the RNA-seq datasets, P≤0.000586) was 23-38% and the “ACHE expression FC” value (SH-SY5Y cells [2]; RNA-seq) was 3.61. For the same substance, the “EDNRB expression FC” value (SH-SY5Y cells [2]; RNA-seq) was 3.82, the “NEDD9 expression FC” value (SH-SY5Y cells [2]; RNA-seq) was 0.54 and the “PTGS1 expression FC” value (SH-SY5Y cells [2]; RNA-seq) was 3.61. For the same substance, the “expression of CLU and RYR3” value (SH-SY5Y cells [2]; RNA-seq) was “down-regulation”, the “expression of PLAU, NGFR and CACNA1G” value (SH-SY5Y cells [2]; RNA-seq) was “up-regulation” and the “DOCK2 expression FC” value (SH-SY5Y cells [2]; RNA-seq, 6 hours of GM6 treatment, P=7.51e-06) was 0.38. For the same substance, the “DOCK2 expression FC” value (SH-SY5Y cells [2]; RNA-seq, 24 hours of GM6 treatment, P=0.0168) was 2.09, the “COX412 expression FC” value (SH-SY5Y cells [2]; RNA-seq, 48 hours of GM6 treatment, P=7.71e-07) was 0.48 and the APOE expression fold-change (SH-SY5Y cells [2]; RNA-seq, 48 hours of GM6 treatment, P=0.000697) was 2.86 fold. The “number of GM6-decreased AD-associated genes” value (SH-SY5Y cells [2]; SBH RNA-seq, 2 time points) was 47, the “number of GM6-increased AD-associated genes” value (SH-SY5Y cells [2]; SBH RNA-seq, 2 time points) was 97 and the “number of GM6-decreased AD-associated genes” value (SH-SY5Y cells [2]; UM RNA-seq, all 3 time points) was 30. The “number of GM6-increased AD-associated genes” value (SH-SY5Y cells [2]; UM RNA-seq, all 3 time points) was 64, the “expression of mitochondria-associated genes NDUFS2, NDUFB8, NDUFS4 and COX10” value (SH-SY5Y cells [2]; varying time points) was “down-regulated” and the “cell survival after exposure to AD patient CSF” value [3] was “partial rescue”. The “cell survival after exposure to ALS patient CSF” value [3] was “partial rescue”.
